This is one part of the list. The data scatter; read single values as rough.
System: Candida albicans SN425
Assay: biofilm OD600 B-score; higher = more biofilm (less inhibition)
Conditions: 10 µM; assay detail: High-throughput adherence inhibition optical density biofilm assay with C. albicans SN425 in RPMI-1640/MOPS pH 7.0, 384-well plates. …
Experimental: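 High-throughput adherence inhibition optical density biofilm assay with C. albicans SN425 in RPMI-1640/MOPS pH 7.0, 384-well plates. Compound (10 µM) was present only during the 90 min adherence step, then washed out, and the biofilm grew 24 h without compound. Biofilm was read as OD600 after removing the media. Scores are the difference from the mean in standard deviations and the plate B-score.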

| Compound | biofilm OD600 B-score |
| --- | --- |
| CCC(C)c1c(O)nc(SCC(=O)c2ccccc2)[nH]c1=O (stereo not given) | 1.28 |
| COc1ccc(OC)c(C(C)NC(=O)C2CC2)c1 (stereo not given) | 0.0437 |
| COc1ccccc1NC(=O)CCN1CCCCCC1 | -0.174 |
| COc1ccc(NC(=O)Nc2cccc3cccnc23)cc1 | 0.787 |
| Cc1ccc(OCC(=O)Nc2nc(C)cc(C)n2)cc1 | 1.44 |
| COc1cccc(C(=O)Nc2ccccc2N2CCOCC2)c1 | -2.51 |
| CC(=O)N1CCN(C2CCN(CCc3ccccc3)CC2)CC1 | 2.17 |
| Cc1cc(NC(=O)C2CC3CCC2C3)no1 (stereo not given) | 3.21 |
| COc1cccc(NC(=O)CCCC(=O)O)c1 | -0.325 |
| N=Cc1c2ccc[nH]c-2c2ccccc12 | -0.812 |
| NS(=O)(=O)c1ccc(Oc2ccccc2)cc1 | 0.558 |
| CC(=O)Nc1ccc(CNc2ccc3c(c2)CCC3)cc1 | -0.701 |
| CN(C)CC(=O)Nc1ccc(Cl)cc1 | -0.814 |
| CCSc1ncnc2c(C#N)c3n(c12)CCCCC3 | -1.85 |
| CC(=O)c1c(C)nn2c3ccccc3n(CCN3CCCCC3)c12 | 1.48 |
| COc1ccccc1NC(=O)C1CC(Cl)=CCC1C(=O)O (stereo not given) | 0.874 |
| O=C(CSc1ccccn1)c1ccc(F)cc1 | -0.00801 |
| CCn1c(=N)c(C#N)cc2c(=O)n3cc(C)ccc3nc21 | -0.632 |
| NS(=O)(=O)c1ccc(NC(=O)c2ccccc2Cl)cc1 | 9.75 |
| CCC(C)c1ccccc1OCCCN1CCOCC1 (stereo not given) | 1.6 |
| CC(=O)c1cccc(NC(=O)c2cccc(F)c2)c1 | 1.17 |
| Cc1ccc(C(=O)NCCCn2ccnc2)o1 | -0.955 |
| CSc1nc(C)cc(OCCNC(=O)Nc2ccccc2)n1 | -1.08 |
| Cc1ccc(C(=O)NCc2cccnc2)s1 | 2.04 |
| Nc1ncc2c(n1)CC(c1cccs1)CC2=O (stereo not given) | 0.441 |
| Cc1cccc(C)c1-n1c(C)n[nH]c1=O | -2.28 |
| CCOC(=O)Nc1nc(-c2ccccc2)c(C)s1 | 0.0861 |

| Compound | biofilm OD600 B-score |
| --- | --- |
| COc1ccc(-c2nnc(-c3ccc(N(C)C)cc3)o2)cc1 | 3.73 |
| O=c1[nH]c2ccccc2n1CCN1CCOCC1 | 0.0261 |
| CCNC(=O)CN(c1ccc(CC)cc1)S(C)(=O)=O | -0.182 |
| COc1ccc(S(=O)(=O)N2CCCC2)cc1 | 3.88 |
| COc1cccc(CN2CCCN(C)CC2)c1 | -3.98 |
| Cc1ccnc(NS(=O)(=O)c2ccc(C(C)(C)C)cc2)c1 | 0.216 |
| Cc1ccc(C)c(CN2CCCN(C)CC2)c1 | 2.01 |
| CCOc1ccc(NC(=O)CSc2ncn[nH]2)cc1 | 0.0974 |
| N#Cc1ccc(-c2cccs2)[nH]c1=O | -1.62 |
| NC(=O)c1c(-c2cccs2)csc1N | -4.55 |
| COc1ccc(Cl)cc1N(CC(=O)O)S(C)(=O)=O | -4.15 |
| CCN(CC)CCN(C)C1CCN(C)CC1 | -2.18 |
| Cc1ccc2nc(SCC(=O)NC(C)(C)C)[nH]c2c1 | -1.55 |
| C=COCCNC(=O)Nc1cccc(Cl)c1 | 0.17 |
| OC1CCN(CC2CC3C=CC2C3)CC1 (stereo not given) | 1.29 |
| OC1CCN(Cc2ccc(Br)cc2)CC1 | -0.608 |
| OCCN(CCO)CC1CC2C=CC1C2 (stereo not given) | 0.921 |
| Cc1ccccc1NC(=O)c1ccc(C)c(S(=O)(=O)Nc2cccnc2)c1 | -0.187 |
| CC(=O)c1c(C)[nH]n(-c2ccccc2)c1=O | 2.4 |
| OC1CCN(Cc2cccc(Oc3ccccc3)c2)CC1 | -0.299 |
| O=C(Cc1ccccc1)Nc1cccc(N2C(=O)CCC2=O)c1 | -3.46 |
| Cc1ccc(-c2csc(N)c2C(N)=O)cc1C | -0.587 |
| CCN(CC)C(=O)C1CCCN(Cc2cccc(OC)c2)C1 (stereo not given) | 0.36 |
| O=C(NCc1ccccc1)Nc1ccc2snnc2c1 | -0.879 |
| CCN1CCN(CCC(=O)Nc2ccccc2C)CC1 | -0.229 |
| O=C(NCc1cccnc1)c1cccc(F)c1 | 1.01 |
| CCc1nc(-c2ccccc2)cc(=O)[nH]1 | 0.164 |

Three structures out of the list, ordered by molar mass, ascending:

| Compound | biofilm OD600 B-score |
| --- | --- |
| N#Cc1ccc(-c2cccs2)[nH]c1=O | -1.62 |
| COc1cccc(CN2CCCN(C)CC2)c1 | -3.98 |
| O=C(Cc1ccccc1)Nc1cccc(N2C(=O)CCC2=O)c1 | -3.46 |

Further structures

| Compound | biofilm OD600 B-score |
| --- | --- |
| COc1ccc(C(=O)N2CCN(CC(=O)N3CCOCC3)CC2)cc1 | -3.63 |
| COc1cc(NC(=O)[C@@H]2C3C=CC(C3)[C@@H]2C(=O)O)c(OC)cc1Cl (stereo not given in full) | -1.42 |
| O=C(NCCCO)NC1CCCCC1 | 0.58 |
| CSc1ccc(S(=O)(=O)NCc2ccncc2)cc1 | 1.25 |
| CC1=CC(C)(C)C(C(=O)O)C(C(=O)O)C1 (stereo not given) | 0.361 |
| Cc1cc(Cl)ccc1NC(=O)C(N)=O | 0.24 |
| NC(=O)C1CCN(C(=O)c2cccc(Cl)c2)CC1 | 0.858 |
| CCN(CC)C(=O)C1CCCN(Cc2ccc(N(C)C)cc2)C1 (stereo not given) | -0.101 |
| O=C(O)c1cc(S(=O)(=O)N2CCCC2)ccc1Br | -0.517 |
| COc1ccc(CCNC(=O)c2ccoc2C)cc1OC | 3.48 |
| O=C(Nc1ccccc1C(=O)N1CCOCC1)c1ccccc1Cl | -0.183 |
| Cc1cc(C)nc(SCc2ccccc2F)n1 | 1.54 |
| c1ccc(N2CCN(c3cc(-n4cccn4)ncn3)CC2)cc1 | 0.272 |
| CC(=O)Nc1ccc(NC(=O)c2ccccc2F)cc1 | -1.98 |
| Cc1ccccc1NC(=O)c1cc(S(N)(=O)=O)ccc1Cl | -2.24 |
| O=C(Nc1nc(-c2ccc(F)cc2)cs1)C1CCCO1 (stereo not given) | 1.07 |
| CC(C)(C)c1ccc(C(=O)Nc2ccc(C(=O)O)cc2)o1 | 0.13 |
| CC(O)/C=C/c1ccc2ccccc2n1 (stereo not given) | -4.03 |
| CN(C)C(=O)N1CCN(c2nc(-c3ccccc3)cs2)CC1 | -0.016 |
| CC1(C)Cc2ccccc2C(C)(C(=O)NN)N1 (stereo not given) | 1.38 |
| Cc1cccc(C(=O)Nc2ccc(F)cc2)n1 | 1.62 |
| OCCN1CCN(CC2CC=CCC2)CC1 (stereo not given) | -0.629 |
| CCCN(CCO)Cc1cc(OC)c(OC)cc1Br | -0.0218 |
| CCOc1ccccc1N1CCN(Cc2ccsc2)CC1 | 1.88 |
| CCSc1nnc(NC(=O)c2ccoc2C)s1 | -1.55 |
| COCCNC(=O)c1ccc2c(c1)OCO2 | 0.0726 |
